Data on 20 compounds can be found in the supplement of paper PMC4604168 (melanoma cell lines).

The other results are listed elsewhere or left out. Repeats are few or missing, and single values can be far off.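 Cells were imaged in 1,536-well plates, and nuclei stained with an antibody against cleaved PARP were counted against all DNA-stained nuclei to give the apoptosis fraction. Screening doses were chosen to leave most cells alive, and resting and induced cleaved-PARP levels differ strongly between cell lines.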

In this experiment the test system is RVH-421. Nature of the experiment: cleaved PARP positive nuclei fraction relative to DMSO control; melanoma cells; higher = more apoptosis. As to conditions: library dose: low library concentration; 72 h.
In the case of `CCN(CC)CCNC(=O)c1c(C)[nH]c(/C=C2\C(=O)Nc3ccc(F)cc32)c1C` [sunitinib] + Cc1cc(N2CCOCC2)cc2[nH]c(-c3c(NC[C@@H](O)c4cccc(Cl)c4)cc[nH]c3=O)nc12 [BMS536924] (first compound 0.4 µM, partner dose 0.2 µM), the “cleaved PARP positive nuclei fraction” value worked out at 94.5%.
The result for `NC(=O)c1ccc(N(C(N)=O)c2c(F)cccc2F)nc1-c1ccc(F)cc1F` + O=C(Nc1cccc(Cl)c1)Nc1ncc(CCNc2ncnc3ccsc23)s1 [SNS314] (first compound 0.4 µM, partner dose 0.0008 µM) reads 124%.
The result for `Cn1cnc2c(F)c(Nc3ccc(Br)cc3Cl)c(C(=O)NOCCO)cc21` [selumetinib] + Cc1ccc(NC(=O)c2cccc(N(C)C)c2)cc1NC(=O)c1ccc(O)cc1 [ZM336372] (first compound 0.015 µM, partner dose 2 µM) reads 184%.
For `CS(=O)(=O)c1ccc(C(=O)Nc2ccc(Cl)c(-c3ccccn3)c2)c(Cl)c1` [vismodegib] + NC(=O)Nc1cc(-c2cccc(F)c2)sc1C(=O)N[C@H]1CCCNC1 [AZD7762] (first compound 1 µM, partner dose 0.02 µM), the “cleaved PARP positive nuclei fraction” value was 72.4%.
Regarding `Cn1cnc2c(F)c(Nc3ccc(Br)cc3Cl)c(C(=O)NOCCO)cc21` [selumetinib] + Cc1cc(N2CCOCC2)cc2[nH]c(-c3c(NC[C@@H](O)c4cccc(Cl)c4)cc[nH]c3=O)nc12 [BMS536924] (first compound 0.015 µM, partner dose 0.2 µM), the “cleaved PARP positive nuclei fraction” value is 101%.
The result for `Cn1cnc2c(F)c(Nc3ccc(Br)cc3Cl)c(C(=O)NOCCO)cc21` [selumetinib] + Oc1nc(-c2ccc(C(F)(F)F)cc2)nc2c1CSCC2 [XAV939] (first compound 0.015 µM, partner dose 2 µM) reads 53.2%; that for `COc1ccc(C2=N[C@@H](c3ccc(Cl)cc3)[C@@H](c3ccc(Cl)cc3)N2C(=O)N2CCNC(=O)C2)c(OC(C)C)c1` [Nutlin-3] + Oc1nc(-c2ccc(C(F)(F)F)cc2)nc2c1CSCC2 [XAV939] (first compound 0.1 µM, partner dose 2 µM), 90%.
Next, `NC(=O)c1ccc(N(C(N)=O)c2c(F)cccc2F)nc1-c1ccc(F)cc1F` + COc1cc2c(Oc3ccc4[nH]c(C)cc4c3F)ncnc2cc1OCCCN1CCCC1 [cediranib] (first compound 0.4 µM, partner dose 0.4 µM): 102%; `Cn1cnc2c(F)c(Nc3ccc(Br)cc3Cl)c(C(=O)NOCCO)cc21` [selumetinib] + CCN(CC)CCCCNc1ncc2cc(-c3cc(OC)cc(OC)c3)c(NC(=O)NC(C)(C)C)nc2n1 [PD173074] (first compound 0.015 µM, partner dose 0.1 µM): 86.9%; `CN(c1ncccc1CNc1nc(Nc2ccc3c(c2)CC(=O)N3)ncc1C(F)(F)F)S(C)(=O)=O` + Oc1nc(-c2ccc(C(F)(F)F)cc2)nc2c1CSCC2 [XAV939] (first compound 0.08 µM, partner dose 2 µM): 137%.
The result for `Cn1cnc2c(F)c(Nc3ccc(Br)cc3Cl)c(C(=O)NOCCO)cc21` [selumetinib] + COc1ccc(COc2ccc(Cc3cnc(N)nc3N)cc2OC)cc1 [GW2580] (first compound 0.015 µM, partner dose 1 µM) reads 101%; that for `NC(=O)c1ccc(N(C(N)=O)c2c(F)cccc2F)nc1-c1ccc(F)cc1F` + O=C(O)c1ccc(-c2c[nH]c3ncc(-c4ccccc4)cc23)cc1C1CCCC1 [GSK650394] (first compound 0.4 µM, partner dose 0.16 µM), 88.4%; that for `COc1ccc(C2=N[C@@H](c3ccc(Cl)cc3)[C@@H](c3ccc(Cl)cc3)N2C(=O)N2CCNC(=O)C2)c(OC(C)C)c1` [Nutlin-3] + NC(=O)Nc1cc(-c2cccc(F)c2)sc1C(=O)N[C@H]1CCCNC1 [AZD7762] (first compound 0.1 µM, partner dose 0.02 µM), 109%.
Consider `CS(=O)(=O)c1ccc(C(=O)Nc2ccc(Cl)c(-c3ccccn3)c2)c(Cl)c1` [vismodegib] + Cc1ccc(NC(=O)c2cccc(N(C)C)c2)cc1NC(=O)c1ccc(O)cc1 [ZM336372] (first compound 1 µM, partner dose 2 µM), for which the “cleaved PARP positive nuclei fraction” value was found to be 79%.
`CCCCCCCCc1ccc(CCC(N)(CO)CO)cc1` [fingolimod] + Cn1cc(/C=C2\C(=O)Nc3cccnc32)c2ccccc21 [GW441756] (first compound 2 µM, partner dose 0.4 µM): the “cleaved PARP positive nuclei fraction” value is 97.2%.
As to `NC1(c2ccc(-c3nc4ccn5c(=O)[nH]nc5c4cc3-c3ccccc3)cc2)CCC1` + C=CCn1c(=O)c2cnc(Nc3ccc(N4CCN(C)CC4)cc3)nc2n1-c1cccc(C(C)(C)O)n1 [MK1775] (first compound 0.4 µM, partner dose 0.02 µM), the “cleaved PARP positive nuclei fraction” value worked out at 61.2%.
Next, `C[C@]1(O)C[C@@H](c2nc(-c3ccc4ccc(-c5ccccc5)nc4c3)c3c(N)nccn32)C1` + O=C(Nc1cccc(Cl)c1)Nc1ncc(CCNc2ncnc3ccsc23)s1 [SNS314] (first compound 0.4 µM, partner dose 0.0008 µM): 26.5%; `CC1(C)CCC(c2ccc(Cl)cc2)=C(CN2CCN(c3ccc(C(=O)NS(=O)(=O)c4ccc(N[C@H](CCN5CCOCC5)CSc5ccccc5)c(S(=O)(=O)C(F)(F)F)c4)cc3)CC2)C1` + O=C1NC(=O)/C(=C/c2ccc(-c3ccc(F)cc3O)o2)S1 [AS252424] (first compound 0.4 µM, partner dose 1 µM): 169%; `CC1(C)CCC(c2ccc(Cl)cc2)=C(CN2CCN(c3ccc(C(=O)NS(=O)(=O)c4ccc(N[C@H](CCN5CCOCC5)CSc5ccccc5)c(S(=O)(=O)C(F)(F)F)c4)cc3)CC2)C1` + c1cc(-c2cnn3cc(-c4ccc(OCCN5CCCCC5)cc4)cnc23)ccn1 [Dorsomorphin] (first compound 0.4 µM, partner dose 0.4 µM): 92.7%.
In the case of `CN(c1ncccc1CNc1nc(Nc2ccc3c(c2)CC(=O)N3)ncc1C(F)(F)F)S(C)(=O)=O` + CCN(CC)CCCCNc1ncc2cc(-c3cc(OC)cc(OC)c3)c(NC(=O)NC(C)(C)C)nc2n1 [PD173074] (first compound 0.08 µM, partner dose 0.1 µM), the “cleaved PARP positive nuclei fraction” value is 43.9%.
